According to the supplement of paper PMC4683952:
Some of the results follow. Rule as the data show it: active = 2 or more and inactive = the rest. Repeats in this data set agree poorly, so a single value says little.

Tested on: Lgr5 (MarsCy1-Lgr5-EGFP, U2OS)
Assay: cell-surface Lgr5 expression (SCi1 fluorescence, background-subtracted) relative to WT DMSO (fold of DMSO control); higher = more Lgr5 at the plasma membrane
Conditions: U2OS MarsCy1-Lgr5-EGFP stable; treatment time: overnight; library: ActiProbe-5K (TimTec); 25 µM

cell-surface Lgr5 expression, inactive:
CCNCC1Cc2ccccc2O1 (centres undefined) 1.37
CC(C)N/C(=N\C#N)SCc1ccc(Br)cc1 0.892
O=S(=O)(Nc1cccnc1)c1ccc(F)cc1 1.04
CC(=O)c1ccc(/C=C\C(=O)O)o1 1.15
Nc1nonc1/C(=N\O)N1CCN(c2ccc([N+](=O)[O-])cc2)CC1 0.892
Cc1nn(CCCNS(=O)(=O)c2c(C)noc2C)c(C)c1Br 1.26
CN1Cc2cc(S(=O)(=O)NC3CC3)ccc2N(C)C1=O 1.53
CC1(C)CC(N2C(=O)OC(C)(C)C2(C)O)CC(C)(C)N1 (centres undefined) 1.09
CC(C)c1cc(=O)n2nc(N)[nH]c2n1 1.26
CC(C)N1CCC2(CC1)C(C#N)=C(N)NC(S)=C2C#N 1.02
COCc1[nH]nc2c1C1(CCSCC1)C(C#N)=C(N)O2 1.17
N#CCn1c2c(c(=O)n3ncnc13)CCCC2 0.995
CC(C)COC(=O)CSc1n[nH]c(=O)[nH]c1=O 1.27
COc1cc2c(cc1OC)-c1cc3ccc(OC)c(OC)c3c[n+]1CC2.O.[Cl-] 0.874
Fc1ccccc1-c1nnc2n1N=C(c1ccc3c(c1)OCO3)CS2 1.01
C1(=C2\OC(=O)c3c2cccc3)/c2c(cccc2)c2c1cccc2 1.18
O=[N+]([O-])c1cccnc1N/N=C/c1cc(Br)c(Br)o1 1.29
COc1cc(C(c2cc3c(cc2O)OCO3)N2CCOCC2)cc(OC)c1OC (centres undefined) 1.5
O=S(=O)(NCc1ccco1)c1cc(Cl)ccc1Cl 1.33
Cc1cc(N)nn1Cn1cc(Cl)cn1 1.13
COc1cc(/C=N/NC(N)=S)cc(OC)c1 1.22
C1=CCC(CNCCCn2ccnc2)CC1 (centres undefined) 1.41
O=c1[nH]c(=S)[nH]c2c1CCC2 0.992
Clc1ccc(-c2csc3c4ncnc-4ncn23)cc1 0.826
COc1c2c(c(CN3C(=O)C4CC=CCC4C3=O)c(OC)c1OC)C(=O)OC2 (centres undefined) 1.24
COC(=O)c1ccn(Cn2nnc(CCn3cc(Cl)cn3)n2)n1 0.999
Cc1nn(CC(C)C(=O)NC2=C(C#N)CCC2)c(C)c1Br (centres undefined) 1.06
CSc1ncc(C(=O)O)c(N)n1 1.26
NS(=O)(=O)c1ccc(-c2ccc(/C=N/C3CCS(=O)(=O)C3)o2)cc1 (centres undefined) 1.2
CS(=O)(=O)O.Cn1c(Cl)c(CN)c2ccccc21 1.2
CN(C)CCCNS(=O)(=O)c1cc(Cl)ccc1Cl 1
N=C(N)SCc1ccc(Cl)cc1 0.913
O=S(=O)(Nc1cccc2ccccc12)N1CCCC1 1.04
CCCCc1[nH]nc2c1C1(CCOC1C)C(C#N)=C(N)O2 (centres undefined) 0.802
CC(=O)OC1CCC2(C)C(=CCC3C2CCC2(C)C(/C(C)=N\NC(N)=O)CCC32)C1 (centres undefined) 1.35
S=C1NC2CCCCC2N1 (centres undefined) 1.26
CC(C1CCC(=N\NC(=O)CCCC(N\N=C2\CCC(C(C)(C)C)CC2)=O)/CC1)(C)C (centres undefined) 1.3
c1ccc(-c2cccc(-c3ccccn3)n2)nc1 0.366
O=c1[nH]nc(Br)c(=S)[nH]1 1.2
O=C(C(=O)N1CCC[C@H]1CO)N1CCC[C@H]1CO 1.11
NC(=S)N1N=C(c2ccccc2)CC1c1ccccc1 (centres undefined) 1.2
O=C1NC2CC(O)(N1)C1OCC2O1 (centres undefined) 1.22
c1ccc(CC2COC(C3=N[C@@H](Cc4ccccc4)CO3)=N2)cc1 (some centres undefined) 1.11
CC1S/C(=N/N=C\c2ccc(O)cc2)N=C1O (centres undefined) 1.59
N#Cc1c(C(F)(F)F)cc(C2CC2)nc1SCc1ccccc1 1.2
c1ccc2c3c(cc(N4CCOCC4)c2c1)OC1(N2CCCCC2)CCCCC1O3 (centres undefined) 1.31
COc1ccc(C(=S)NN)cc1 1
O=C1CCCC(O)=C1C1C2=C(CCCC2=O)Oc2ccccc21 (centres undefined) 0.898
c1ccc2c(c1)c1c3n2CCNC3CCC1 (centres undefined) 1.44
C=CC[n+]1ccc2ccccc2c1.[Br-] 1.28
Nc1c(C(=O)[O-])sc2nc3c(cc12)CCCC3 1.11
Cc1ccc(C2C(C#N)=C(N)SC(N)=C2C#N)o1 1.42
COc1cccc(=O)c2c(C)oc(C)c12 1.19
O=C1CCCC2=C1C1(OC3C=CC=CN23)C(=O)c2ccccc2C1=O (centres undefined) 1.39
Clc1ccc(Cl)c(/N=C\c2cc3ccccc3nc2Cl)c1 1.34
O=S(=O)(c1ccc(-n2ccnc2)cc1)N1CCCC1 0.947
Clc1ccc(-n2cccc2)nc1 0.995
Cc1nn(C)cc1NC(=S)N1CCSCC1 1.26
Cc1cccn2c(=O)c(/C=C3/SC(=S)N(C(C)C)C3=O)c(N3CCCC3)nc12 0.937
Nc1ccc2c(c1)S(=O)(=O)c1cc(N)ccc1C2 1.08
CCOC(=O)c1[nH]c(COC(C)=O)c(CC)c1C 1.39
Nc1nc(O)c2nc([C@H](O)[C@H](O)CO)cnc2n1 1.4
O=S(=O)(Nc1ccc(Cl)cn1)c1ccc(F)cc1 0.994
N#CCCN(/N=C\c1cccc2ccccc12)C1=NS(=O)(=O)c2ccccc21 1.67
Cn1c(-c2ccco2)nn(CN2CCC(C(N)=O)CC2)c1=S 1.21
CN(C)CCCNC(=O)C12CC3CC(CC(C3)C1)C2 1.58
Cc1ncc(CO)c(CO)c1O.Cl 1.23
CCOC(=O)ON1C(=O)c2ccccc2N2COc3ccccc3C12 (centres undefined) 1.11
CN1CCC2(CC1)C(C#N)=C(N)C(C#N)(C#N)C1=C2CN(C)CC1 1.13

5 compounds from above, sorted by length of the SMILES, rising.
cell-surface Lgr5 expression, inactive:
CCNCC1Cc2ccccc2O1 (centres undefined) 1.37
COc1cccc(=O)c2c(C)oc(C)c12 1.19
CC1S/C(=N/N=C\c2ccc(O)cc2)N=C1O (centres undefined) 1.59
CC1(C)CC(N2C(=O)OC(C)(C)C2(C)O)CC(C)(C)N1 (centres undefined) 1.09
O=C1CCCC2=C1C1(OC3C=CC=CN23)C(=O)c2ccccc2C1=O (centres undefined) 1.39
